The data set is described as follows: general procedure: peptide synthesis; HATU, DIEA. The conditions noted are these: for step yield: late stage modification step.

H-SVSEIQLMHNLGKHLNSMERVEW-SPh showed a step yield of 28%. For the same substance, where the note is “whole synthesis”, the crude mass turned out to be 156.4 mg. In addition, the crude yield (whole synthesis, scale of the general procedure 0.05 mmol) stood at 68%.

Take [Nle^8,18]hPTH(1-37): the step yield is 38%.

[Nle^8,18]hPTH(1-84): the step yield was found to be 57%.

For the origin of these results see patent publication US20140228293A1 (THE GENERAL HOSPITAL CORPORATION, priority 2011, published 2014).
